Source: the supplement of paper PMC8728848
The list shows a part of the results.

Assays:
Experiment in all cases: glycan array binding signal (z-score within array); higher = stronger binding
Details in all cases: glycan notation: IUPAC condensed, linker removed
[1] = molecular target: Fuc(a1-2)Gal(b1-4)[Fuc(a1-3)]GlcNAc
In short: (§1)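 Glycan array binding is given as a within-array Z-score, which can be read as non-binding when negative. The arrays, 3228 of them, came from the Consortium for Functional Glycomics database and were retained only where the protein sequence was available. Z-scores were averaged across arrays of the same protein sequence at different concentrations or buffers and across linkers.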

[2] = molecular target: Fuc(a1-2)Gal(b1-4)[Fuc(a1-3)]GlcNAc(b1-2)Man(a1-3)[Fuc(a1-2)Gal(b1-4)[Fuc(a1-3)]GlcNAc(b1-2)Man(a1-6)]Man(b1-4)GlcNAc(b1-4)GlcNAc
In short: as §1

[3] = molecular target: Fuc(a1-2)Gal(b1-4)[Fuc(a1-3)]GlcNAc(b1-2)[Fuc(a1-2)Gal(b1-4)[Fuc(a1-3)]GlcNAc(b1-4)]Man(a1-3)[Fuc(a1-2)Gal(b1-4)[Fuc(a1-3)]GlcNAc(b1-2)Man(a1-6)]Man(b1-4)GlcNAc(b1-4)GlcNAc
In short: as §1

[4] = molecular target: Fuc(a1-2)Gal(b1-4)[Fuc(a1-3)]GlcNAc(b1-3)Gal(b1-4)[Fuc(a1-3)]GlcNAc
In short: as §1

[5] = molecular target: Fuc(a1-2)Gal(b1-4)[Fuc(a1-3)]GlcNAc(b1-3)Gal(b1-4)[Fuc(a1-3)]GlcNAc(b1-3)Gal(b1-4)[Fuc(a1-3)]GlcNAc
In short: as §1

[6] = molecular target: Fuc(a1-2)Gal(b1-4)[Fuc(a1-3)]GlcNAc(b1-3)GalNAc
In short: as §1

Fuc(a1-2)Gal6S(b1-4)Glc = molecular target: Fuc(a1-2)Gal6S(b1-4)Glc
In short: as §1

[7] = molecular target: Fuc(a1-2)Gal6S(b1-4)Glc6S
In short: as §1

[8] = molecular target: Fuc(a1-2)Gal6S(b1-4)GlcNAc
In short: as §1

Fuc(a1-2)[Gal(a1-3)]Gal = molecular target: Fuc(a1-2)[Gal(a1-3)]Gal
In short: as §1

[9] = molecular target: Fuc(a1-2)[Gal(a1-3)]Gal(b1-3)GalNAc
In short: as §1

[10] = molecular target: Fuc(a1-2)[Gal(a1-3)]Gal(b1-3)GlcNAc
In short: as §1

[11] = molecular target: Fuc(a1-2)[Gal(a1-3)]Gal(b1-3)GlcNAc(b1-2)Man(a1-3)[Fuc(a1-2)[Gal(a1-3)]Gal(b1-3)GlcNAc(b1-2)Man(a1-6)]Man(b1-4)GlcNAc(b1-4)GlcNAc
In short: as §1

[12] = molecular target: Fuc(a1-2)[Gal(a1-3)]Gal(b1-3)GlcNAc(b1-2)Man(a1-3)[Fuc(a1-2)[Gal(a1-3)]Gal(b1-3)GlcNAc(b1-2)Man(a1-6)]Man(b1-4)GlcNAc(b1-4)[Fuc(a1-6)]GlcNAc
In short: as §1

[13] = molecular target: Fuc(a1-2)[Gal(a1-3)]Gal(b1-3)GlcNAc(b1-3)GalNAc
In short: as §1

[14] = molecular target: Fuc(a1-2)[Gal(a1-3)]Gal(b1-4)Glc
In short: as §1

[15] = molecular target: Fuc(a1-2)[Gal(a1-3)]Gal(b1-4)GlcNAc
In short: as §1

[16] = molecular target: Fuc(a1-2)[Gal(a1-3)]Gal(b1-4)GlcNAc(b1-2)Man(a1-3)[Fuc(a1-2)[Gal(a1-3)]Gal(b1-4)GlcNAc(b1-2)Man(a1-6)]Man(b1-4)GlcNAc(b1-4)GlcNAc
In short: as §1

[17] = molecular target: Fuc(a1-2)[Gal(a1-3)]Gal(b1-4)GlcNAc(b1-2)Man(a1-3)[Fuc(a1-2)[Gal(a1-3)]Gal(b1-4)GlcNAc(b1-2)Man(a1-6)]Man(b1-4)GlcNAc(b1-4)[Fuc(a1-6)]GlcNAc
In short: as §1

[18] = molecular target: Fuc(a1-2)[Gal(a1-3)]Gal(b1-4)GlcNAc(b1-3)GalNAc
In short: as §1

[19] = molecular target: Fuc(a1-2)[Gal(a1-3)]Gal(b1-4)[Fuc(a1-3)]Glc
In short: as §1

[20] = molecular target: Fuc(a1-2)[Gal(a1-3)]Gal(b1-4)[Fuc(a1-3)]GlcNAc
In short: as §1

[21] = molecular target: Fuc(a1-2)[Gal(a1-3)]Gal(b1-4)[Fuc(a1-3)]GlcNAc(b1-3)GalNAc
In short: as §1

[22] = molecular target: Fuc(a1-2)[Gal(a1-4)]Gal(b1-4)GlcNAc
In short: as §1

[23] = molecular target: Fuc(a1-2)[GalNAc(a1-3)]Gal
In short: as §1

[24] = molecular target: Fuc(a1-2)[GalNAc(a1-3)]Gal(b1-3)GalNAc(a1-3)[Fuc(a1-2)]Gal(b1-4)GlcNAc
In short: as §1

[25] = molecular target: Fuc(a1-2)[GalNAc(a1-3)]Gal(b1-3)GlcNAc
In short: as §1

[26] = molecular target: Fuc(a1-2)[GalNAc(a1-3)]Gal(b1-3)GlcNAc(b1-2)Man(a1-3)[Fuc(a1-2)[GalNAc(a1-3)]Gal(b1-3)GlcNAc(b1-2)Man(a1-6)]Man(b1-4)GlcNAc(b1-4)GlcNAc
In short: as §1

[27] = molecular target: Fuc(a1-2)[GalNAc(a1-3)]Gal(b1-3)GlcNAc(b1-2)Man(a1-3)[Fuc(a1-2)[GalNAc(a1-3)]Gal(b1-3)GlcNAc(b1-2)Man(a1-6)]Man(b1-4)GlcNAc(b1-4)[Fuc(a1-6)]GlcNAc
In short: as §1

[28] = molecular target: Fuc(a1-2)[GalNAc(a1-3)]Gal(b1-3)GlcNAc(b1-3)GalNAc
In short: as §1

[29] = molecular target: Fuc(a1-2)[GalNAc(a1-3)]Gal(b1-4)Glc
In short: as §1

[30] = molecular target: Fuc(a1-2)[GalNAc(a1-3)]Gal(b1-4)GlcNAc
In short: as §1

[31] = molecular target: Fuc(a1-2)[GalNAc(a1-3)]Gal(b1-4)GlcNAc(b1-2)Man(a1-3)[Fuc(a1-2)[GalNAc(a1-3)]Gal(b1-4)GlcNAc(b1-2)Man(a1-6)]Man(b1-4)GlcNAc(b1-4)GlcNAc
In short: as §1

[32] = molecular target: Fuc(a1-2)[GalNAc(a1-3)]Gal(b1-4)GlcNAc(b1-2)Man(a1-3)[Fuc(a1-2)[GalNAc(a1-3)]Gal(b1-4)GlcNAc(b1-2)Man(a1-6)]Man(b1-4)GlcNAc(b1-4)[Fuc(a1-6)]GlcNAc
In short: as §1

[33] = molecular target: Fuc(a1-2)[GalNAc(a1-3)]Gal(b1-4)GlcNAc(b1-3)Gal(b1-4)GlcNAc
In short: as §1

[34] = molecular target: Fuc(a1-2)[GalNAc(a1-3)]Gal(b1-4)GlcNAc(b1-3)Gal(b1-4)GlcNAc(b1-3)Gal(b1-4)GlcNAc
In short: as §1

[35] = molecular target: Fuc(a1-2)[GalNAc(a1-3)]Gal(b1-4)GlcNAc(b1-3)GalNAc
In short: as §1

[36] = molecular target: Fuc(a1-2)[GalNAc(a1-3)]Gal(b1-4)[Fuc(a1-3)]GlcNAc
In short: as §1

[37] = molecular target: Fuc(a1-2)[GalNAc(a1-3)]Gal(b1-4)[Fuc(a1-3)]GlcNAc(b1-3)GalNAc
In short: as §1

[38] = molecular target: Fuc(a1-2)[GalNAc(a1-4)]Gal(b1-4)GlcNAc
In short: as §1

[39] = molecular target: Fuc(a1-2)[GalNAc(b1-3)]Gal
In short: as §1

Fuc(a1-3)GlcNAc = molecular target: Fuc(a1-3)GlcNAc
In short: as §1

[40] = molecular target: Fuc(a1-3)[Gal(b1-4)]Glc6S
In short: as §1

[41] = molecular target: Fuc(a1-3)[Gal(b1-4)]GlcNAc
In short: as §1

[42] = molecular target: Fuc(a1-3)[Gal(b1-4)]GlcNAc(b1-2)Man(a1-3)[Fuc(a1-3)[Gal(b1-4)]GlcNAc(b1-2)Man(a1-6)]Man(b1-4)GlcNAc(b1-4)GlcNAc
In short: as §1

B1: Layilin (Mus musculus), Q8C351 (protein)
chain: MQPGAALQAMLLAVLLAKPRDSKGRLLSASDLDPRGGQLVCRGGTRRPCYKVIYFHDAFQRLNFEEAKETCMEDGGQLVSIETEDEQRLIEKFIENLLASDGDFWIGLKRLEEKQSNNTACQDLYAWTDGSTSQFRNWYVDEPSCGSEVCVVMYHQPSAPPGIGGSYMFQWNDDRCNMKNNFICKYHDDKPSTTPSIWPGGEATEPATPLLPEETQKEDTKETFKERREAALNLAYILIPSIPLFLLLVVTSAVCWVWICRRKREQTDPSTKEQHTIWPTPRQENSPNLDVYNVIRKQSEADLAEPRPDLKNISFRVCSGEAMPDDMSCDYENIAVNPSESGFVTLASMESGFVTNDIYEFSPDRMGRSKESGWVENEIYY
glycan array binding signal (z-score) [1]: -0.045
glycan array binding signal (z-score) [2]: 2.69
glycan array binding signal (z-score) [3]: 2.52
glycan array binding signal (z-score) [4]: -0.228
glycan array binding signal (z-score) [5]: -0.201
glycan array binding signal (z-score) [6]: 4.74
glycan array binding signal (z-score) (Fuc(a1-2)Gal6S(b1-4)Glc): -0.77
glycan array binding signal (z-score) [7]: 0.095
glycan array binding signal (z-score) [8]: 0.187
glycan array binding signal (z-score) (Fuc(a1-2)[Gal(a1-3)]Gal): 1.35
glycan array binding signal (z-score) [9]: 0.28
glycan array binding signal (z-score) [10]: 2.33
glycan array binding signal (z-score) [11]: 1.05
glycan array binding signal (z-score) [12]: -0.347
glycan array binding signal (z-score) [13]: -0.382
glycan array binding signal (z-score) [14]: -0.634
glycan array binding signal (z-score) [15]: 0.143
glycan array binding signal (z-score) [16]: 0.449
glycan array binding signal (z-score) [17]: -0.28
glycan array binding signal (z-score) [18]: -0.073
glycan array binding signal (z-score) [19]: -0.648
glycan array binding signal (z-score) [20]: 1.88
glycan array binding signal (z-score) [21]: 2.54
glycan array binding signal (z-score) [22]: -0.606
glycan array binding signal (z-score) [23]: -0.501
glycan array binding signal (z-score) [24]: 0.394
glycan array binding signal (z-score) [25]: -0.196
glycan array binding signal (z-score) [26]: 0.941
glycan array binding signal (z-score) [27]: -0.021
glycan array binding signal (z-score) [28]: 1.54
glycan array binding signal (z-score) [29]: -0.577
glycan array binding signal (z-score) [30]: 0.73
glycan array binding signal (z-score) [31]: 0.056
glycan array binding signal (z-score) [32]: -0.512
glycan array binding signal (z-score) [33]: -1.24
glycan array binding signal (z-score) [34]: 0.481
glycan array binding signal (z-score) [35]: 1.35
glycan array binding signal (z-score) [36]: 1.01
glycan array binding signal (z-score) [37]: 2.16
glycan array binding signal (z-score) [38]: -0.629
glycan array binding signal (z-score) [39]: -1.12
glycan array binding signal (z-score) (Fuc(a1-3)GlcNAc): 0.905
glycan array binding signal (z-score) [40]: -0.93
glycan array binding signal (z-score) [41]: -0.489
glycan array binding signal (z-score) [42]: -0.753
